At least one structure is not confirmed: it was looked up by name or label, or the drawing left a doubt.
System: primary cells of esophageal squamous carcinoma
Test: Effects of concentrations of the added factors or small molecule compounds on proliferation (Example 7)
Type: cell-based, human
Conditions: 10 μM, 3 μM, 1 μM, 0.3 μM, 0.1 μM; control No. 7 medium
Procedure: According to the same process as in Example 1, endoscopic tissue Sample 65, Sample 66, Sample 67, Sample 68 and Sample 69 were isolated to obtain primary cells of esophageal squamous carcinoma, and the obtained primary cells of esophageal squamous carcinoma were cultured by using No. 7 medium of Example 1. The resultants were inoculated into 12-well plate at a living cell density of 1×10^4/cm^2 (45,000 cells per well), and then the plate was added with NIH-3T3 cells that have been irradiated by γ-ray (irradiation dose 35Gy) at a cell density of 2×10^4/cm^2, which were then fully mixed. After surface disinfection, the plate was placed in a 37° C., 5% CO2 incubator (Thermo Fisher) for culture. When the cells expended to cover 85% of the plate, the 12-well plate was taken out, rinsed with 200 μL 0.25% trypsin (Gibco) for 1 minute. The liquid was removed by sucking, and 500 μL 0.05% trypsin (Gibco) was added to each well again. The resultant was placed in a 37° C., 5% CO2 incubator to react for 10 minutes, and the digestion can be terminated until it can be observed under the microscope (EVOS […], Invitrogen) that the cells have been completely digested. After being centrifuged at 1500 rpm for 4 minutes, the supernatant was discarded, and 1 mL of basic culture medium was added for resuspension. […]

C=C[C@@]1(C)CC(=O)[C@]2(O)[C@@]3(C)[C@@H](O)CCC(C)(C)[C@@H]3[C@H](O)[C@H](OC(C)=O)[C@@]2(C)O1 [Forskolin]
proliferation promoting effect when added to No. 7 medium: do not show significant proliferation promoting effect
